Measured values reported in patent US20220144957A1 (IMMUNECENT BIOTECHNOLOGY, published 2022).

How the values were obtained:
IFNAR1-Δaa32-126 (human) [1] = assay: flow cytometry on 293T cells expressing the variant
[2] = molecular target: IFNAR1-Δaa32-126, Δaa331-432 (human); assay: as above
[3] = molecular target: IFNAR1-Δaa331-432 (human); assay: as above
IFNAR1-Δaa32-126 (human) [4] = assay: flow cytometry, 293T cells overexpressing the IFNAR1 variant, percentage of PE-positive cells [B]
[5] = molecular target: IFNAR1-Δaa32-126, Δaa331-432 (human); assay: as above
[6] = molecular target: IFNAR1-Δaa331-432 (human); assay: as above

binding (IFNAR1-Δaa32-126 (human) [1]) | binding [2] | binding [3] | binding (IFNAR1-Δaa32-126 (human) [4]) | binding [5] | binding [6] | Binder
binds | binds | binds | binds | binds | binds | anti-human IFNAR1 monoclonal antibody 7G4 (antibody, V domains shown, Mouse monoclonal antibody from hybridoma CGMCC No. 16286) VH: QVQLQQPGAELVKPGAPVKLSCKASGYTFTSYWMNWVRQRPGRGLEWIGKIDPSDSETHFNQKFRDKATLTVDKSSTTAYIQLSSLTSEDSAVYYCARGGRISFDYDAALDYWGQGTSVTVSS VL: DILMTQSSSSFSVSLGDRVTITCKSSEVIYNRLAWFQQKPGNAPRLLISGATTLESGFPSRFSGSGSGKDYTLSITSLQIEDVSTYYCQQYWNKPFTFGSGTKLEVK
binds | binds | binds | binds | binds | binds | anti-human IFNAR1 monoclonal antibody 10C5 (antibody, V domains shown, Mouse monoclonal antibody from hybridoma CGMCC No. 16287) VH: QVQLQQPGTELVKPGSPVKLSCKASGYTFTSFWLNWVQQRPGRGLEWIGKIDPSDSEIRYNQKFKDKATLTVDKSSNTAYIQLSSLTSEDSAVYYCARGGGIYYDYDGAMDYWGQGTSVTVSS VL: DIQMTQSSSSFSVSLGDRLTITCKASEVIYNRLAWFQQKPGNAPRLLISGATSLETGVPSRFSGSGSRKDYTLSISSLQTEDVATYYCQQYWSSPFTFGSGTKLEIK

Results are given in words; binding and its absence hold for the method and conditions named. Binding calls can cover weak binding; strength is not graded here.
